Data taken from ChEMBL document CHEMBL3988442, “University of Dundee, Small-Polar-MMV Screening Library” (2021).

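Viability assay of Plasmodium falciparum sporozoites; the read-out is not stated. The concentration is filed as 10 mM, unlikely as a test dose, so the dose is not known. The record gives no direction; compounds that gave an IC50 in retests scored well above the rest, so higher reads as lower viability. Strong results were mostly tested again. Of about 34,000 compounds tested this way, about 280 (0.84%) reached 50% or more in at least one test.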

Values are the deposited “Percent Effect”, in %.
The record does not define 0% and 100%; most values in the screen are far below 50% and negative numbers occur (in some assays of this library far below -100).
This is an unselected part of the compounds tested.
Two or more numbers in one place are separate tests of the same structure; such repeats can differ widely.

Compound: O=C(C1=NN(Cc2ccccc2)c2ccccc2S1(=O)=O)N1CCCC1
effect: 9.725 & -0.6249

Compound: Cn1nc(CN2CCCC2)c2c1CN(CC1CC1)CC2.O=C(O)C(F)(F)F.O=C(O)C(F)(F)F
effect: 2.6

Compound: O=C(O)C(F)(F)F.[H][C@]12CCC[C@@]1(COCC1CCOCC1)CN(C(=O)c1ccccn1)C2
effect: -7.491

Compound: CCn1ccc(C(=O)NCCCN2CCOCC2)n1
effect: -0.4362

Compound: COc1cccc(NC(=O)NCC(O)c2ccc(F)cc2F)c1 (stereo not drawn)
effect: -3.079

Compound: COCCCOC1CN(C(=O)c2[nH]nc3c2CCCC3)C1
effect: 46.69 & 37.91

Compound: Cc1ccn(CC(=O)Nc2cc(-c3ccncc3)[nH]n2)n1
effect: -1.741

Compound: COCCNC(=O)C1CN(Cc2ccncc2)Cc2ccnn2C1.O=C(O)C(F)(F)F.O=C(O)C(F)(F)F.O=C(O)C(F)(F)F (stereo not drawn)
effect: 8.249

Compound: CN1CC2(CCN(Cc3cc(Cl)ccc3OCC(=O)O)CC2)OC1=O
effect: -23.42 & -14.25

Compound: CN(CC(=O)N(C)C1CCCCC1)C1CCc2ccccc21 (stereo not drawn)
effect: -1.484

Compound: COC(=O)c1ccc(N2CCN(C(=O)c3ccc(O)nc3)C(C)C2)cc1 (stereo not drawn)
effect: 7.394

Compound: CCN1CCOC(CNCc2cccc(OCc3ccccn3)c2)C1 (stereo not drawn)
effect: 4.869

Compound: O=C(Cc1ccc2c(c1)CCO2)N1CCCC1c1noc(C2CC2)n1 (stereo not drawn)
effect: 1.912

Compound: COc1ccc(F)c(CN2CCCC3(CCN(C4CCOCC4)C3)C2)c1 (stereo not drawn)
effect: -4.182 & -5.528

Compound: Cc1nn(C)cc1-c1cc(C(=O)N2CCc3ncc(Cl)cc3C2)no1
effect: -1.699

Compound: CCCc1nc(N2CCCN(c3ncccn3)CC2)c2cnn(C)c2n1
effect: -9.077

Compound: Cc1cnn(CC2CN(Cc3noc(C4CC4)n3)CCO2)c1 (stereo not drawn)
effect: 4.522

Compound: COc1ccc(N2CCN(C(=O)NC(C)c3nncn3C)CC2)cc1 (stereo not drawn)
effect: 15.31

Compound: COCCN1CCC(NCc2ccc(C#N)cc2)C1 (stereo not drawn)
effect: 10.14

Compound: Cc1nn(C)c(C)c1S(=O)(=O)N(C)Cc1nn(C)c(Cl)c1Cl
effect: 1.523

Compound: Cc1cnc(N2CC3(CCN(C(=O)c4ccoc4)C3)C2)nc1
effect: -0.2181

Compound: CC1=Nc2c(c(=O)[nH]n2C(C)C)C(c2cccs2)S1 (stereo not drawn)
effect: -2.193

Compound: CC(=O)N1CCCn2nc(CNS(=O)(=O)c3cc(C)cs3)cc2C1
effect: -3.846

Compound: c1ncn(CC2CN(Cc3nc(C4CC4)no3)CCO2)n1 (stereo not drawn)
effect: 8.419

Compound: CC(=O)NCc1ccc(C(=O)N2CCCC2c2cnn(C)c2)s1 (stereo not drawn)
effect: -2.421

Compound: CSc1ccc(C(CN)N2CCc3sccc3C2)cc1 (stereo not drawn)
effect: 10.26

Compound: CCN(CC)Cc1ccc(C(=O)N2CCCC2c2cnn(C)c2)o1 (stereo not drawn)
effect: 5.489

Compound: O=C1CCC(C(=O)NCCOc2cccc(Cl)c2Cl)CN1 (stereo not drawn)
effect: 1.427

Compound: CCN1CC2(CCN(C(=O)C3CSC(C)(C)C(=O)N3)CC2)CC1=O (stereo not drawn)
effect: -23.43 & -33.25

Compound: CN1CCC/C1=N\S(=O)(=O)c1ccc(NC(=O)c2cccs2)cc1
effect: -1.067

Compound: [H][C@]12CC[C@]([H])(CN(C(=O)C3CCC3)C1)N(Cc1cnn(CC)c1)C2
effect: 1.954

Compound: CN1CCC(c2nnc(CN3CCC(O)CC3)n2C)CC1
effect: 10.27

Compound: Fc1cccc(CN2CCC[C@@H](Cn3nnc(-c4ccccn4)n3)C2)c1
effect: 10.2

Compound: COc1cccc(CN2CCN(c3ccc4nncn4n3)C(C)C2)c1 (stereo not drawn)
effect: -6.075 & -0.9103 & 9.321

Compound: O=C(O)C(F)(F)F.O=C(O)C(F)(F)F.c1cncc(OCC2CN(Cc3ccsc3)Cc3nccn3C2)c1 (stereo not drawn)
effect: -12.96

Compound: COc1cccc(N2CCN(C(=O)COc3c(C)occc3=O)CC2)c1
effect: -16.44

Compound: Cc1nc2c(c(N[C@H](C(N)=O)C(C)C)n1)Cc1ccccc1OC2
effect: -3.76

Compound: CNS(=O)(=O)c1cccc(CNC(=O)c2c(C)oc(C)c2C)c1
effect: -65.87

Compound: CC(=O)c1cccc(OCCCC(=O)N(C)CCc2ccncc2)c1
effect: -19.88

Compound: CC(NC(=O)NCC1(c2ccc(F)cc2)CCC1)c1nncn1C (stereo not drawn)
effect: 5.46

Compound: CCn1ncc(Br)c1CN(C)S(=O)(=O)c1ccc(C)cc1
effect: -3.769

Compound: COc1cc(C(=O)N(Cc2cnn(C)c2)C(C)C)ccc1C
effect: 4.109

Compound: CCNc1nc2c(s1)C(=O)CN(C(=O)NCCc1ccccc1)C2
effect: -9.804

Compound: CCN1CCn2c(C)cnc2C12CCN(C(=O)CC(C)C)CC2.O=C(O)C(F)(F)F.O=C(O)C(F)(F)F
effect: 11.15

Compound: [H][C@@]12OCCC[C@]1([H])N(C(N)=O)C[C@@H]2NC(=O)c1cscn1
effect: 4.295

Compound: N[C@@H]1CCC[C@@H](Oc2ccc(F)cc2Oc2ccccc2)[C@@H]1O
effect: 4.9

Compound: O=C(NCc1cc2n(n1)CCCN(Cc1ccc(Cl)s1)C2)C1CCC1
effect: -11.67

Compound: CCn1ncc2c1C(COC)CN(Cc1cnn(C)c1)C2 (stereo not drawn)
effect: -2.544

Compound: CCN1CCC(c2nc3ccc(NC4CCC4)cn3n2)CC1.O=C(O)C(F)(F)F
effect: 7.257

Some entries from above, unchanged:

Compound	effect
CN1CCC/C1=N\S(=O)(=O)c1ccc(NC(=O)c2cccs2)cc1	-1.067
CCN1CCOC(CNCc2cccc(OCc3ccccn3)c2)C1 (stereo not drawn)	4.869
c1ncn(CC2CN(Cc3nc(C4CC4)no3)CCO2)n1 (stereo not drawn)	8.419
COc1cccc(CN2CCN(c3ccc4nncn4n3)C(C)C2)c1 (stereo not drawn)	-6.075 & -0.9103 & 9.321